Values from PubChem BioAssay AID686937 (Drosophila RNAi Screening Center, 2013).
The screen tested about 23,000 reagents; this is an unselected part of those that have a named target and a result. 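Reduced-secretion tags in replicate 1 do not always agree with the z-scores; no criterion for assigning the tags was given.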 Reagents against one gene are numbered here. Further read-outs or replicates are left out here. Not stated in the record: the amount of reagent.

Aim: 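Genes whose loss weakens secretory pathway function in fly cells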 (primary screen)
System: Drosophila S2 cells expressing secreted horseradish peroxidase
Reagents: long dsRNA against Drosophila genes
Time to read-out: about 5.5 days (5 days dsRNA, then 12 h reporter induction)
Conditions: reporter expression induced after 5 days of dsRNA, read 12 h later; inducer not stated
Measurement: 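Chemiluminescent measurement of peroxidase in the medium 12 h after reporter induction, following 5 days of dsRNA, given as a z-score per plate; higher means more secretion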
Direction: z-score: higher = more reporter secreted into medium

CG1529 scored z-score, replicate 1 = 0.58. Depletion of Dref came out at: z-score, replicate 1 = -0.96. Silencing of g resulted in: z-score, replicate 1 = -0.9. CR46300 gave z-score, replicate 1 = 0.56. For CG13532 the deposit lists z-score, replicate 1 = 0.18. Depletion of Sema1b resulted in: z-score, replicate 1 = 0.48.

Lnk gave z-score, replicate 1 = 0.25. Silencing of ATbp resulted in: z-score, replicate 1 = 0.62. After knock-down of CG11975 the results were z-score, replicate 1 = 0.56. eIF3d2 gave z-score, replicate 1 = 0.27. imd scored z-score, replicate 1 = 0.01. With knock-down of beat-Ib, the record shows z-score, replicate 1 = 0.45.

For U2A the deposit lists z-score, replicate 1 = -1.49. Depletion of eater #1 gave: z-score, replicate 1 = -0.43. With knock-down of eater #2 the results were z-score, replicate 1 = -0.42. After knock-down of Pop5, the screen gave z-score, replicate 1 = 0.35. With knock-down of CG8818 the results were z-score, replicate 1 = 0.24. Depletion of VhaM9.7-a came out at: z-score, replicate 1 = 0.24.

With knock-down of CG3420 the results were z-score, replicate 1 = 0.39. Knock-down of CG12909 gave: z-score, replicate 1 = 0.02. With knock-down of beat-VII #1 the results were z-score, replicate 1 = 0.54. After knock-down of beat-VII #2, the record shows z-score, replicate 1 = 0.39. Depletion of beat-VII #3 resulted in: z-score, replicate 1 = 0.35. After knock-down of beat-VII #4, the record shows z-score, replicate 1 = -0.3.

CG11192 showed z-score, replicate 1 = 0.33. Knock-down of Doc2 came out at: z-score, replicate 1 = -0.03. After knock-down of hog, the record shows z-score, replicate 1 = -0.17. For CG12519 #1 the deposit lists z-score, replicate 1 = 0.38. Knock-down of CG12519 #2 gave: z-score, replicate 1 = 0.08. For dao, the entry reads z-score, replicate 1 = 0.08.

For Cyp6d4, the values are z-score, replicate 1 = 0.23. With knock-down of CG43109 the results were z-score, replicate 1 = 0.34. ATPsynF scored z-score, replicate 1 = -0.22. side-V #1 showed z-score, replicate 1 = 0.57. side-V #2 showed z-score, replicate 1 = 0.81. Silencing of side-V #3 resulted in: z-score, replicate 1 = -1.07.

Hsp67Ba scored z-score, replicate 1 = -0.07. Against CG14937, the entry reads z-score, replicate 1 = 0.05. For bwa #1 the deposit lists z-score, replicate 1 = 0.5. bwa #2 gave z-score, replicate 1 = 0.29. Knock-down of Nxf3 came out at: z-score, replicate 1 = -0.13. After knock-down of CG8245, the screen gave z-score, replicate 1 = -0.42.

Naxe scored z-score, replicate 1 = 0.17. With knock-down of CG2246 the results were z-score, replicate 1 = 0.08. Cyp313a3 scored z-score, replicate 1 = 0.3. With knock-down of MFS10, the screen gave z-score, replicate 1 = 0.32. Knock-down of chb came out at: z-score, replicate 1 = -0.87. Obp8a showed z-score, replicate 1 = 0.45.

Against CG11560 the deposit lists z-score, replicate 1 = 0.57. qin #1 showed z-score, replicate 1 = 0.1. qin #2 gave z-score, replicate 1 = 0.3.

Reformatted: results already given.
CG8245
- z-score, replicate 1: -0.42

Naxe
- z-score, replicate 1: 0.17

CG2246
- z-score, replicate 1: 0.08

Cyp313a3
- z-score, replicate 1: 0.3

MFS10
- z-score, replicate 1: 0.32

chb
- z-score, replicate 1: -0.87

Obp8a
- z-score, replicate 1: 0.45

CG11560
- z-score, replicate 1: 0.57
